No constants are given. Whether binding was seen depends on the method and setting. In cells and extracts the contact can be indirect. Some entries that bind do so weakly or less than the wild type. For part of these data: Sequences can lack the tags named with a protein. Each block holds one molecule with its values, some of them ahead of it.
How the values were obtained:
flag-tagged E4BP4 = molecular target: T1, flag-tagged E4BP4 (UniProt O08750); test: co-IP; COS-7 cells transfected with myc-tagged Dec2 vectors and flag-tagged E4BP4 vector; lysates precipitated with anti-flag antibody, blot with anti-myc antibody
T1 sequence: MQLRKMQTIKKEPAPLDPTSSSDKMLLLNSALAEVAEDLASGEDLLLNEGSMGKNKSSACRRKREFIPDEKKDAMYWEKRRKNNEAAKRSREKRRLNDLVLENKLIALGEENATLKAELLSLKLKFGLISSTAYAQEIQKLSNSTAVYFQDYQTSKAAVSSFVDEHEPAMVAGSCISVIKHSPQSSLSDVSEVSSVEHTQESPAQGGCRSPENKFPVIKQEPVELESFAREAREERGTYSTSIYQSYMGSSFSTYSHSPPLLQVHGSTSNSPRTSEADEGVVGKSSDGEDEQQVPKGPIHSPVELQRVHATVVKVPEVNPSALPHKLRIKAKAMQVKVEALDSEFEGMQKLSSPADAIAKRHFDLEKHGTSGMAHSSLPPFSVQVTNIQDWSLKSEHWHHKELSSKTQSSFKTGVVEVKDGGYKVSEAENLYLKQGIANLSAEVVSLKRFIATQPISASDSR

Amino acid sequences for entries named in this document (tags omitted). A change or cut given only in a name is not applied to a line headed by its entry.
UniProt Q99PV5: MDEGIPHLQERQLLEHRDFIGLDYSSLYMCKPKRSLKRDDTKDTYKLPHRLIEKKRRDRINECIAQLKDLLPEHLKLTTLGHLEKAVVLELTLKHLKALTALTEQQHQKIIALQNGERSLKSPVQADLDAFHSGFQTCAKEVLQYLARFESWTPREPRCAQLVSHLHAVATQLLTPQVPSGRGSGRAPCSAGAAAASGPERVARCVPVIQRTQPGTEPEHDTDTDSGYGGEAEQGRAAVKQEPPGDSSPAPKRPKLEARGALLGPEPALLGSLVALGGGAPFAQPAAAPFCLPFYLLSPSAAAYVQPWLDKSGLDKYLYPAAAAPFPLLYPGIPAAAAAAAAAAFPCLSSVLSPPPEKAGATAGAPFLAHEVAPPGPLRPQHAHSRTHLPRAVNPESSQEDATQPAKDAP

[1] = molecular target: DEC2 (differentiated embryonic chondrocyte-expressed 2) (UniProt Q99PV5); test: co-IP; NIH3T3 cells co-transfected with pcDNA3.1-Dec2 and pcDNA3.1-FLAG-E4bp4; lysate in 20 mM Tris-HCl pH 7.5, 150 mM NaCl, 0.3% Triton X-100; precipitated with anti-DEC2 antibody and Protein A agarose overnight at 4°C; blot with anti-FLAG
[2] = molecular target: GST-DEC2 fusion protein (full-length Dec2 fused with GST) (UniProt Q99PV5); test: pull-down; purified GST-DEC2 on glutathione-coupled agarose beads; [35S]methionine-labeled E4BP4 synthesized in vitro; detected by radioactivity; only the target purified

binding (flag-tagged E4BP4): binds
Molecule: myc-tagged DEC2 bHLH domain (from UniProt Q99PV5 44-99) (domain or fragment)

binding [1]: binds
B1: Flag-tagged E4BP4 (E-promoter-binding protein 4) (protein, UniProt O08750 1-462)
chain: MQLRKMQTIKKEPAPLDPTSSSDKMLLLNSALAEVAEDLASGEDLLLNEGSMGKNKSSACRRKREFIPDEKKDAMYWEKRRKNNEAAKRSREKRRLNDLVLENKLIALGEENATLKAELLSLKLKFGLISSTAYAQEIQKLSNSTAVYFQDYQTSKAAVSSFVDEHEPAMVAGSCISVIKHSPQSSLSDVSEVSSVEHTQESPAQGGCRSPENKFPVIKQEPVELESFAREAREERGTYSTSIYQSYMGSSFSTYSHSPPLLQVHGSTSNSPRTSEADEGVVGKSSDGEDEQQVPKGPIHSPVELQRVHATVVKVPEVNPSALPHKLRIKAKAMQVKVEALDSEFEGMQKLSSPADAIAKRHFDLEKHGTSGMAHSSLPPFSVQVTNIQDWSLKSEHWHHKELSSKTQSSFKTGVVEVKDGGYKVSEAENLYLKQGIANLSAEVVSLKRFIATQPISASDSR

binding [2]: binds
B2: Radioisotope labeled S^35-E4BP4 (protein, UniProt O08750 1-462)
chain: MQLRKMQTIKKEPAPLDPTSSSDKMLLLNSALAEVAEDLASGEDLLLNEGSMGKNKSSACRRKREFIPDEKKDAMYWEKRRKNNEAAKRSREKRRLNDLVLENKLIALGEENATLKAELLSLKLKFGLISSTAYAQEIQKLSNSTAVYFQDYQTSKAAVSSFVDEHEPAMVAGSCISVIKHSPQSSLSDVSEVSSVEHTQESPAQGGCRSPENKFPVIKQEPVELESFAREAREERGTYSTSIYQSYMGSSFSTYSHSPPLLQVHGSTSNSPRTSEADEGVVGKSSDGEDEQQVPKGPIHSPVELQRVHATVVKVPEVNPSALPHKLRIKAKAMQVKVEALDSEFEGMQKLSSPADAIAKRHFDLEKHGTSGMAHSSLPPFSVQVTNIQDWSLKSEHWHHKELSSKTQSSFKTGVVEVKDGGYKVSEAENLYLKQGIANLSAEVVSLKRFIATQPISASDSR
modifications: [35S] methionine-labeled

Source: publication PMC4512152
